Data taken from ChEMBL document CHEMBL3988442, “University of Dundee, Small-Polar-MMV Screening Library” (2021).

By UniProt entry, the sequences of proteins in these tests, tags left out.
UniProt E9BF75, entry or part of it: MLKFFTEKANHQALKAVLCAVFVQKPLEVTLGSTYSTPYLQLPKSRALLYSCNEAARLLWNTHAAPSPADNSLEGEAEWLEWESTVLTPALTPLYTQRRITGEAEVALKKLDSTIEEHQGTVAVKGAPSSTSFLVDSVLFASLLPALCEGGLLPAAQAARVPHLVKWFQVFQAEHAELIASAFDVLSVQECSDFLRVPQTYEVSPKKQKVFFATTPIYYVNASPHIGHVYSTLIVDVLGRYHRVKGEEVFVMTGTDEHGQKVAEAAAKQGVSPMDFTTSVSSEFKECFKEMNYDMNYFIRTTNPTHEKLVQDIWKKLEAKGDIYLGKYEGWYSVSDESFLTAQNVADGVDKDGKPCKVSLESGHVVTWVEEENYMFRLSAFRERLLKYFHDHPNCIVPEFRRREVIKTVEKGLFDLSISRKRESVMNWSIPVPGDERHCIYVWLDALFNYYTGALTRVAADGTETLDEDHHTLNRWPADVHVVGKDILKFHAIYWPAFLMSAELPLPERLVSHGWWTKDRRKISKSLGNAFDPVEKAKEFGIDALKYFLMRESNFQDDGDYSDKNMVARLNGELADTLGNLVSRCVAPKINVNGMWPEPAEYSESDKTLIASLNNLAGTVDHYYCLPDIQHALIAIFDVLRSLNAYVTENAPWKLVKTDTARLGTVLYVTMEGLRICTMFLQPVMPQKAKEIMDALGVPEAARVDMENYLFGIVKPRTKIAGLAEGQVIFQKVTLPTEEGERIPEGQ

All values are in %. The record does not define 0% and 100%; most values in the screen are far below 50% and negative numbers occur (in some assays of this library far below -100). This is an unselected part of the compounds tested. A dash means the value is not listed here; it may have been measured.

Mtb heat-shock: 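Assay on Mycobacterium tuberculosis, filed only as a heat shock assay from Cornell; the read-out is not stated. The concentration is filed as 10 mM, unlikely as a test dose, so the dose is not known. The record gives no direction; compounds that gave an IC50 in retests scored well above the rest, so higher reads as stronger inhibition. Of about 69,000 compounds tested this way, about 930 (1.4%) reached 50% or more in at least one test.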
LdMetRS: 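Primary screen of methionyl-tRNA synthetase; the read-out is not stated. Target: Methionyl-tRNA synthetase (putative), Leishmania donovani (UniProt E9BF75). The test concentration is not given. Values are per cent inhibition. Size under these conditions: about 68,000 compounds, about 24 of them at 50% or above in at least one test.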
Mtb growth Cornell: 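Whole-cell assay for inhibitors of Mycobacterium tuberculosis growth, labelled Cornell in the record; the read-out is not stated. The concentration is filed as 10 mM, unlikely as a test dose, so the dose is not known. The record gives no direction; compounds strong in two other growth screens of this library score well above the rest, so higher reads as stronger inhibition. Size under these conditions: about 53,000 compounds, about 900 of them at 50% or above in at least one test.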

compound | Mtb heat-shock | LdMetRS | Mtb growth Cornell
CC(C)n1cnc(-c2nc(C(=O)N3CCCC3)c3ccccn23)c1 | -17.6% | 13.33% | 26.88%
CN(Cc1ccc2nonc2c1)C(=O)CCc1cc2n(n1)CCCNC2 | -32.07% | 5.484% | 10.68%
CN(C)CCN1C(=O)CCC12CCN(C(=O)CC1CC1)CC2 | 10.08% | 11.86% | 8.584%
CC(C)CC(=O)N1CCN(Cc2csc(-c3ncccn3)n2)CC1 | -40.88% | 8.488% | -18.53%
CNC(=O)COc1ccc(CNc2cncc(-n3cccn3)n2)cc1 | -4.201% | 19.89% | -
CN(C)CCN(Cc1ccc(Cl)cc1)C(=O)c1cnccn1 | -26.53% | 11.96% | 23.92%
Cn1cc(CN2CCC3(CCCN3S(C)(=O)=O)CC2)cn1 | -6.07% | -2.146% | -16.1%
CCc1nc2n(n1)CC(NCc1ccnc(-c3ccccc3)n1)CC2 (stereo not shown) | -4.471% | 11.02% | 13.4%
O=C(O)C(F)(F)F.O=C(O)C(F)(F)F.O=C(O)C(F)(F)F.[H][C@@]12COC[C@]1(C(=O)NCc1ccccn1)CN(Cc1cccnc1)C2 | -8.191% | - | -
Cc1nnc(NC(=O)NCc2ccc(OC3CCCC3)nc2)s1 | -2.865% | 11.93% | -
Cc1nc(C2CCCN2CCCS(=O)(=O)c2ccccc2)no1 (stereo not shown) | 17.63% | 17.71% | -
COc1ccccc1OCC(=O)Nc1ncccc1C | -25.4% | 9.239% | -4.021%
COc1cc(NCCCSc2nnc(C)s2)ncn1 | 14.24% | 4.336% | -12.24%
Cc1cc(=O)[nH]c(-n2nc(C)c(CCC(=O)Nc3nc(C)cs3)c2C)n1 | 95.61% | 15.21% | 28.05%
CC1CCc2nn(CCNC(=O)c3cccs3)c(=O)cc2C1 (stereo not shown) | 4.149% | 5.319% | -26.47%
Cc1ccc(O[C@@H]2C[C@H]3CN(Cc4nccn4C)CCN3C2)cc1 | - | 14.81% | -
CN(Cc1cccc(OCCO)c1)Cc1cccc2ncccc12 | -13.22% | 2.35% | -
Cc1csc(CN(C)CCOc2ccccc2)n1 | 21.36% | 6.803% | 39.22%
CC(=O)NC1CCN(c2cc(C3CCNCC3)ccn2)CC1 | - | 6.383% | -
Cc1ccc(CC2COCCN(Cc3ccccc3)C2)nc1 (stereo not shown) | -0.5522% | 23.81% | 25.54%
CN(C)c1ncc2c(O)nc(C3CCCNC3)cc2n1 (stereo not shown) | -0.824% | 10.48% | 18.72%
Cc1cc(C)c2c(N3CCC(C(=O)N4CCOCC4)CC3)ncnc2n1 | -13.95% | 3.427% | -19.3%
CC(C)CNC(=O)N1CCC2(CC1)OC(C(N)=O)Cn1ccnc12 (stereo not shown) | - | 8.269% | -
CN(Cc1nnc(C2CC2)o1)Cc1ccccc1N1CCOCC1 | 24.58% | 5.789% | 7.59%
N[C@@H]1c2ccccc2C2(CCN(c3cnc4ccccc4n3)CC2)[C@H]1O | 23.39% | 38.17% | 40.3%
CC(C)N1CCC2(CC1)CC(c1cccnc1)C(=O)N2 (stereo not shown) | 10.57% | 18.13% | 17.24%
CCS(=O)(=O)N1Cc2ccnn2CC(c2nc(C)no2)C1 (stereo not shown) | 4.461% | 11.68% | -11.51%
Cc1nccn1Cc1cccc(CNC(=O)c2ccn(C)c(=O)c2)c1 | -21.74% | -0.7732% | -27.7%
O=C(Nc1cc(C(F)(F)F)c[nH]c1=O)C1CCCCN1 (stereo not shown) | - | 19.63% | -
O=C(Nc1ccc(Cl)cn1)C1CCCN(CCc2ccccn2)C1 (stereo not shown) | -33.27% | 0% | -23.9%
CC(C)C(NC(=O)NCCNc1cnccn1)c1cccs1 (stereo not shown) | -9.057% | 19.09% | -54.33%
COc1ccc(-c2cc(-c3nc(CN4CCN(C)CC4)no3)[nH]n2)cc1 | -31.65% | 11.94% | 7.452%
CN(Cc1noc(C2CC2)n1)C1CCN(Cc2cccc(F)c2F)C1 (stereo not shown) | -5.844% | 12.11% | -
CNS(=O)(=O)c1cccc(CNCc2ccsc2)c1 | -15.37% | 14.84% | -4.124%
CCCc1nc(CN(CCO)Cc2cc(Br)ccc2F)no1 | -17.17% | 11.32% | 55.91%
O=C(C1CCCC1)N1CCCC2(CCN(c3cnccn3)CC2)C1.O=C(O)C(F)(F)F | 5.927% | - | -
Cc1cc(F)ccc1-c1cc(NCCO)nc2[nH]ccc12 | 20.06% | 16.97% | 0.1562%
Cn1c(=O)c2cc(C(=O)NCCc3ccccc3)ccc2n(C)c1=O | -0.868% | -0.2703% | -4.072%
Cl.O=C(NCC1CCC2(CCNCC2)O1)C1CC1 (stereo not shown) | -1.329% | - | -
O=C(CN(Cc1cccc(F)c1)CC1CCCO1)N1CCCC1 (stereo not shown) | -5.509% | 8.933% | -7.47%
CN(C)C(=O)CN1CCCC2(CCN(c3ccsc3)C2=O)C1 (stereo not shown) | - | -0.3484% | -
Cc1c(C(=O)NC2=NCCS2)cnn1-c1ccc(Br)cc1 | 23.54% | 1.809% | -9.509%
CC(C)=Cc1c(-c2ccccc2)ncn1CCN(C)S(C)(=O)=O | -11.65% | 9.536% | 3.812%
CN(Cc1cn2c(n1)CN(C(=O)c1cccn1C)CC2)Cc1ccco1 | -2.856% | 12.06% | -29.33%
Cc1csc(C2CCCN(C(=O)c3cnn4ccc(C)nc34)C2)n1 (stereo not shown) | -9.885% | 7.343% | 8.219%
O=C1COC2(COCCN(Cc3cccnc3)C2)CN1c1ccccc1 (stereo not shown) | - | 2.837% | -
O=C1COC2(CCN(Cc3cccs3)CC2)CN1c1ccsc1 | - | 15.34% | -
CNC(=O)N1CCC2(CC1)c1ncc(C)n1CCN2C | - | 12.64% | -
Cn1ncc2c1CN(Cc1ccc(F)cc1)CC2COCC1CC1.O=C(O)C(F)(F)F.O=C(O)C(F)(F)F (stereo not shown) | -18.92% | - | -21.09%
COCc1nn(C)c2c1CN(Cc1cnn(C)c1)CC2 | - | -9.444% | -
COc1nn(C)c2c1CCCN(C(=O)c1cccn1C)C2 | -4.754% | 6.587% | 11.29%
NC(=O)CSCC(=O)NC1(c2cccc(Br)c2)CC1 | -15.75% | 16.7% | 17.93%
Cc1ccc(CN2C[C@@H]3[C@@H](C(=O)NCC(C)C)CCS(=O)(=O)[C@@H]3C2)cc1 | - | 0.5076% | -
Cc1cccc(NC2CCN(C(=O)Nc3ccc(F)cc3C)CC2)n1 | -7.267% | 19.44% | 27.43%
CCN1CC(NC(=O)Nc2nc(C)n(C(C)C)n2)CC1=O (stereo not shown) | -30.87% | 8.059% | -
CC(C)c1cc(C(=O)NCCN2CCCS2(=O)=O)n[nH]1 | 10.43% | 12.27% | 7.475%
Cc1noc(C(C)Nc2ccc3c(c2)CCC3)n1 (stereo not shown) | -23.91% | 5.943% | -0.4193%
CC(C)Nc1nc2c(s1)C(=O)CN(C(=O)NCCc1ccccc1)C2 | -14.61% | 14.81% | 19.63%
O=C1CC(c2ccc(C(F)(F)F)cc2)c2c(n3ccsc3nc2=O)N1 (stereo not shown) | 7.361% | 16.67% | -29.63%
O=C(C1CC(F)(F)C1)N1C[C@@H]2CN(Cc3ccoc3)CCO[C@@H]2C1 | - | 8.791% | -
O=C(C1CCOCC1)N1CC[C@H]2C[C@@H](c3ccncn3)O[C@@H]2C1 | - | 10.73% | -